About 210 (0.4%) of roughly 52,000 sequences were called active.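 How the source made its calls: active means gene whose silencing raises cell survival under the drug, median off-target-corrected z-score across its silencing RNAs 2 or more; inactive means the rest.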 The list shows a part of the results.

A short description of this experiment: Resistance to Poly (ADP-Ribose) Polymerase inhibitor: Gene Identification via Genome-wide siRNA Screen. The conditions noted are these: mouse BRCA2 R2336H ES cells, olaparib, CellTiter-Glo viability; stronger effect = higher value. An outline of the steps:
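Genome-wide siRNA screen (3 siRNAs/gene, 20 nM) in mouse ES cells carrying hypomorphic BRCA2 R2336H; olaparib 500 nM added 48 h post-transfection, CellTiter-Glo viability 72 h later. Normalized to plate-median negative control; MAD z-scores, gene median, seed-adjusted.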
Background: ATP-based viability assays read luminescence as a measure of living cells.
Take “CGACUGUCGUUUGUUGAUGTT against 4933401I19Rik”: the z-score was inactive: -0.646. Regarding GAUGGUUGUAGACUUCUUATT against Olfr1216, the z-score is inactive: 0.229. “GGACGAGAAACCAGUGACATT against 5730466H23Rik”: the z-score was inactive: -2.27. Then CCAUACCAUCUUUGAAACATT against Rpl21, with inactive: -0.687; and GGCUAUAGGUUUCUGGGAATT against Fzd6, with inactive: 1.17. Then GCCAGCUGUGGGAUUUCACTT against LOC433873, with inactive: -0.553.

Take GGAUUAUGUGAAAACUCUGTT against Sgpl1: the z-score was inactive: 0.0345.

For GCUACAUAGCCCUGAUUGCTT against Fkhl18, the z-score is inactive: 2.59. Then GGAGUUCAACGAGAUCUGUTT against Hus1b, with inactive: -0.357.

Take “CCUUAUUGAGACGAAUACGTT against 5330408N05Rik”: the z-score is inactive: -0.542.

Turning to GGCCGAUCUCUAAACAUAGTT against Sfrs14, the z-score was inactive: 2.49.

In the case of GGCUCAGAGUUAUUUUUGCTT against Gtlf3b, the z-score is inactive: 0.313. For the sequence CCCUUACGGGUUGACCUUGTT against Gltscr2, the z-score was inactive: 0.414. Under GGACUACUCCUGGUAGUGATT against Tscot stands inactive: 0.572. Then CCACAUUGUUUGGUAACCUTT against Olfr1489, with inactive: -0.0849; and GACCUUCCUGUCUGAGAUCTT against Ssbp4, with inactive: -0.23. For “GCUAAUCCAAUCACUGAUGTT against 4930422G04Rik”, the z-score was inactive: -0.181. Under “CCUGAAUAUAUAGUGCAUGTT against 1500001H12Rik” stands inactive: 1.87; under “GCUGCUUAUCUAGACCAGCTT against A930017K11Rik”, inactive: -0.615. Regarding GGUGGCUUUAGGGAACAUUTT against Dctn3, the z-score was inactive: -3.2. As to CCUAUGGUGGUGAGAGGACTT against Fbxl18, the z-score is inactive: 1.42. Consider GGUAUUAGAAGAUAAUGACTT against Akt3, for which the z-score is inactive: 0.39. In the case of GCACUUAUUCUAGAGGAGATT against Appbp2, the z-score was inactive: -0.385. Under GGACAAUGAACUGAUUACCTT against Ap1s2 stands inactive: 0.19; under GGCUGGAUAUAUGGUGUACTT against Prodh2, inactive: -0.079. As for “GCGGGCCAAGGUAGAAUACTT against D4Ertd478e”, the z-score is inactive: -0.178. Then “GCCCUUAUUCCAGUCAGUUTT against 4933421H10Rik”, with inactive: -1.91; and GGUUUGGUAUCAUGUAUGUTT against Ddx1, with inactive: 1.29. Under GGGCUAUCGCUGCAUUAUCTT against Cbs stands inactive: -0.0854; under GGACUUCAACCUGCUGUAUTT against Kctd15, inactive: 0.901. Under GGGAACCAUGGGAAUAUUUTT against MGC29978 stands inactive: -0.555; under “GGCAAACAAAUGGUUUGUUTT against D430030K24Rik”, active: 2.76; under CCUAAUCAGUGUUAAGUACTT against Atrnl, inactive: -1.36. GGACUUUGGUUUUUGUAAGTT against Slitl2: the z-score is inactive: -0.36. Regarding GUGUGGAUAGCUGUAAACGTT against Tcl1b5, the z-score was inactive: 0.802. With GCACGUCUUAAAACAUUUATT against Actr6, the z-score is inactive: -0.456. Then GGCUCACGCACUGACUAUUTT against Osgepl1, with inactive: 0.54; and CCCUAUCAUUACCAAGCUGTT against Hspa8, with inactive: -3.62; and GGACACUCUACGUAUCUCATT against Tnfrsf1b, with inactive: -1.66. Under GCGAAUUCGAAAGCUAUGATT against Arhgef10 stands inactive: -2.39; under GGCAGACCCUGUGAAUAUATT against Cyr61, inactive: -0.294.

With GGUAACUCUGCUGGGAUUCTT against Olfr444, the z-score is inactive: 1.67. Under CGGUUAGAUGAGCUUGAGATT against Smad2 stands inactive: 0.479; under “GGUCAAAAGUUCUGGACAGTT against 9630042H07Rik”, inactive: 0.467; under GAGAUUGCCAAAGACAAAATT against V1rh18, inactive: -0.223. Under GGAACGAUUGGUUUUUUUUTT against Ms4a6c stands inactive: 0.7.

Consider GCUACAAGAUGUGGUCAACTT against Cdc42ep1, for which the z-score is inactive: -0.34. For the sequence GGGAGAGUAAUGUGGACAUTT against Slc37a2, the z-score is inactive: 3.43. Take “GGCAAGAAAGAAGUGGAACTT against 1700060H10Rik”: the z-score was inactive: 0.461.

“GGCCAUGGAGAAGUACAACTT against 6720463E02Rik”: the z-score is inactive: 0.913. On to GCAAGCAUGUGAGAGGGCUTT against Anapc10, for which the z-score was inactive: 0.582. Then GGAUUCUUCUUCUCAGACGTT against Ciz1, with inactive: 0.189; and “CGCAGACAAGAAAUGAAGGTT against 0610008F07Rik”, with inactive: -0.0362; and GGUAAAUUGUCAGAGUUUUTT against Phka1, with inactive: 2.05. Under GGCUGUGAUCAAAGAACAGTT against Bbs4 stands inactive: -0.697; under GGCGCAGCAAAUUCAAUUUTT against Shmt2, inactive: -0.417.

Regarding GGAUUUUGUUGGAACAGAATT against Gna15, the z-score is inactive: -0.352.

For GGUUUUGGCUCGAAGGAAATT against Tead2, the z-score is inactive: -1.

GCAUUUGGGCAACGAGAUGTT against Nr5a1: the z-score is inactive: 0.915. Turning to GGACAUUCGAGGAGAGACCTT against Rdh13, the z-score is inactive: 0.674. Then GGAACUGGAAUUUAUGAUATT against Btla, with inactive: 1.1. On to GGGUGUAAUAGUUACAAGATT against Zfp189, for which the z-score is inactive: 2.07. Take GCACCAGUGUUACCACAGUTT against Foxc1: the z-score was inactive: -1.25.

Turning to AUAACCUAACUCACAACAATT against Olfr304, the z-score is inactive: 0.544.

On to GCAACUUUGGCACUAUCCGTT against Rnf123, for which the z-score is inactive: 1.3.

With CCCUUACUAGAAAAAAGACTT against Nap1l2, the z-score is inactive: 0.282. Take GGAUGGUGACAUGAAAAUCTT against Ifng: the z-score is inactive: -0.37. Take GGGCUUCUAACAAUACUUGTT against Frat2: the z-score was inactive: 0.586. Under GCCCUUUUCAUUCUCCAGATT against Zdhhc25 stands inactive: -0.611; under GGAGUGUCUUUUCUUUAAUTT against Acvr2, inactive: 0.359; under CGAGCACUCAAUGUGUUGGTT against Abcb6, inactive: -0.0471. Then “GCCACGACCAUUCAGACUCTT against A930011F22Rik”, with inactive: 2.32. In the case of GGGUUAGACAUCUUUCUGCTT against Olfr57, the z-score is inactive: 0.639. GUCUUUGGCUCGGUUUGCGTT against Dmrta2: the z-score is inactive: 0.0993. On to GGAGAGUGGGAACCACUACTT against Prkaca, for which the z-score was inactive: 0.679. Regarding “GGAGUAGACAGAGGAUGGCTT against 2310051M13Rik”, the z-score is inactive: -1.06. Under “CCUUAUAGAGAGAGCCCUGTT against D8Ertd325e” stands inactive: -0.441; under GGCUGUUCGUAAUAACCGCTT against Pcnt1, inactive: -0.669. Take GCCAUCAUCUUUGUUUAGUTT against LOC240549: the z-score is inactive: 1.22. Under “CCACAGAUUUGCCUGAAAATT against 4931407G18Rik” stands inactive: -1.01; under GGACUACGGUGAUGAUGGATT against Dpt, inactive: -2.01; under GCAUCACGCUAUAACCAUUTT against Slc22a17, inactive: 0.934.

As to CCCUCAACCCAUAAUAUUATT against Zfp364, the z-score is inactive: 0.162. Under GGCGGAAAUCAAAGGAGGATT against Dnmt1 stands inactive: 1.1; under GGGCUGCUGAUACAAACAATT against Dnmt2, inactive: 1.31.

GGGUACAAGAGUCUGUUCUTT against Fkrp: the z-score was inactive: -1.28.

Consider GCUCUGCCUUCAGAUGACGTT against Olfr173, for which the z-score was inactive: -0.214. Then CCUAAGGAGACACGAAGCCTT against Pfc, with inactive: 0.318; and GGAUCAAGAAUUAAUGUCUTT against Nes, with inactive: 0.00402; and GGAAUAAAUACAGGUUCUCTT against Chuk, with inactive: -0.985. On to GAAGCGAUGCUCAGAUCCATT against Serpina1d, for which the z-score is inactive: -1.15. “GGAAGAGAAUAGAUCCUAUTT against 2410081M15Rik”: the z-score is inactive: 2. Then CGACAUGUAAAACUAUUGUTT against BC034097, with active: 0.0442; and “GCAGCAAUGGUUUAACACCTT against 1110003E01Rik”, with inactive: 1.36; and GGCAUUAAAGACCUGUUAATT against Kpnb1, with inactive: 0.672. On to GGAAUGUGAAGGAUGUUCUTT against Nhlh1, for which the z-score was inactive: -1.83. Then GCGAGUAGAAUUCUUUAACTT against Tnrc11, with inactive: 0.795; and GCUUUUACAAUUCAGGCAGTT against Naalad2, with inactive: 0.34; and GGACAGACUGUGAUUCCUCTT against Bscl2, with inactive: -0.578. On to “GGCUUUGUAUCAUCAUCAUTT against 4632428N05Rik”, for which the z-score is inactive: 0.83. Then “CCUCGUUCCUGAUAACCAUTT against 0610010K14Rik”, with inactive: -0.473; and GGAUCAUUUGUUAAUGUACTT against Ddx3y, with inactive: 0.432. As for GGAGAUGUGUUGAGUUUUCTT against Abcg2, the z-score is inactive: -0.0939. Then “GGUAGAUAUCCUUGAGUACTT against 3300001H21Rik”, with inactive: -1.66.

(Values after PubChem BioAssay AID1347423 (Functional Genomics Laboratory (NCATS/FGL), 2020).)
